# Data taken from patent publication US9868772B2 (INDIANA UNIVERSITY RESEARCH AND TECHNOLOGY CORPORATION, priority 2012, dated 2018).
# Test: general procedure: Boc solid-phase peptide synthesis; MBHA resin, 100-180 mesh, 1% DVB, loading 0.7-1.0 mmol/g (Midwest Biotech); DEPBT/DIEA single couplings; DIC for acylation
# Conditions: lipidation step, analytical HPLC, UV 214 or 220 nm
substance,measurement,value
Glucagon Aib2 E16 A18 L27 D29 Cex Cys40(S-2 palmityl)amide,final HPLC purity,90%+
